The other results are listed elsewhere or left out.
What was measured:
Experiment in all cases: log2 fold change, soluble protein after heating vs DMSO (PISA); higher = thermal stabilisation; K562 cells, 10 uM, 30 min; active = over 0.2 and 3.5 SD of the protein, either way, in both replicates (recomputed)
[1] = compound: CC[C@@H]1C(=O)N(C)c2cnc(Nc3ccc(C(=O)NC4CCN(C)CC4)cc3OC)nc2N1C1CCCC1
Outline: (§1)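 Quantification of soluble protein used TMTpro 16plex LC-MS/MS, with channel sums equalised. Samples were the supernatant after 21,000xg for 90 min of pooled aliquots from K562 cells (2×10^6 cells/mL) treated with 10 μM compound for 30 min, heated for 3 min over 48°C-58°C, and extracted in PBS with 0.5% NP-40 at 4°C. Values, from duplicates, describe thermal stability against control samples on a log2 fold-change scale.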

The chains behind the UniProt entries cited, without tags or fusion partners. Where a name states a change or a piece, a line headed by the entry shows the natural chain unless it says otherwise.
UniProt Q9H0R4: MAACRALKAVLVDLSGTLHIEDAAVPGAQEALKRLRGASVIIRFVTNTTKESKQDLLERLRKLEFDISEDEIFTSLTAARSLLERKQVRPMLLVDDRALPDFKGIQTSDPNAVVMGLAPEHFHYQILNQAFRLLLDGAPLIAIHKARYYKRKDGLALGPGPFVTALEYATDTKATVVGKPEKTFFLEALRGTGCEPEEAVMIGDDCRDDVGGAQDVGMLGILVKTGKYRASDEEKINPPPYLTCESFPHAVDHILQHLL
UniProt Q9UBN7: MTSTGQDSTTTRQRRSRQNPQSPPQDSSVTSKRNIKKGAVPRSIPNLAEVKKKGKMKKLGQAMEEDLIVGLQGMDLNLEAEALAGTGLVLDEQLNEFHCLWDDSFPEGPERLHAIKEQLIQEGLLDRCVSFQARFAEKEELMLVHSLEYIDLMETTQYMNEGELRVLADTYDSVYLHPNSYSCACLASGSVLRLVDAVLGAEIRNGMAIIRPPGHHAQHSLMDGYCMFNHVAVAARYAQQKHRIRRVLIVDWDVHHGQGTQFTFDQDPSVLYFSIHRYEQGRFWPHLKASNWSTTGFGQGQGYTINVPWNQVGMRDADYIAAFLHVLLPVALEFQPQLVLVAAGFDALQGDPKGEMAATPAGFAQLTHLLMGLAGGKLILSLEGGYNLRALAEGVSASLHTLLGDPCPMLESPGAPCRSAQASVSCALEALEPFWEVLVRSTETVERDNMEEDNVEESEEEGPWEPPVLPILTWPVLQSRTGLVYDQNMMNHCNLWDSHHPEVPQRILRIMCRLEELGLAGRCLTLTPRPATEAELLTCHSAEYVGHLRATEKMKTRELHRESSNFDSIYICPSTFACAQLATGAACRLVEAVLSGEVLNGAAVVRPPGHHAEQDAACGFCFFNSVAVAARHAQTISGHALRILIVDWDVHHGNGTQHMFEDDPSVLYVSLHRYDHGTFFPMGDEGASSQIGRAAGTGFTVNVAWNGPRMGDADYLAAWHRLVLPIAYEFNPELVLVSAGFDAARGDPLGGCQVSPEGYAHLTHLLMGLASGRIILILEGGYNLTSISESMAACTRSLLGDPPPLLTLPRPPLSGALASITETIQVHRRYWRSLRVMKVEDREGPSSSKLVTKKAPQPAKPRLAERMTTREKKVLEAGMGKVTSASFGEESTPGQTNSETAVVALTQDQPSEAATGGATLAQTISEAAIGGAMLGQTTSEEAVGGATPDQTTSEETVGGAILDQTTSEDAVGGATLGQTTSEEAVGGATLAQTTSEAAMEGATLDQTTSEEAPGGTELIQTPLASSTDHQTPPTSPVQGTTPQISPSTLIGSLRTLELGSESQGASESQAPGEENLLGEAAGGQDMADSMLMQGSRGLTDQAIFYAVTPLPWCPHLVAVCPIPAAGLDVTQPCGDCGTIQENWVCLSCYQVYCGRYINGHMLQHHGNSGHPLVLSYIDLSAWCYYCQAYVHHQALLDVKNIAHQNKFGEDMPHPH
UniProt O00165, whole entry, looked up: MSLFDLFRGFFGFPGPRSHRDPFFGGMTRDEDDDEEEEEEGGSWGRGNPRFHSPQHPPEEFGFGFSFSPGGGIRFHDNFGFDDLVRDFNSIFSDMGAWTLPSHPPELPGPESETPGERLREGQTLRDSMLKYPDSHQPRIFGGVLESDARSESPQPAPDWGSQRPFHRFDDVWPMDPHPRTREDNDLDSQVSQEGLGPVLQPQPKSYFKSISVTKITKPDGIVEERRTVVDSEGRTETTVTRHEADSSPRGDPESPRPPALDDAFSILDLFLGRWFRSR
UniProt P42357: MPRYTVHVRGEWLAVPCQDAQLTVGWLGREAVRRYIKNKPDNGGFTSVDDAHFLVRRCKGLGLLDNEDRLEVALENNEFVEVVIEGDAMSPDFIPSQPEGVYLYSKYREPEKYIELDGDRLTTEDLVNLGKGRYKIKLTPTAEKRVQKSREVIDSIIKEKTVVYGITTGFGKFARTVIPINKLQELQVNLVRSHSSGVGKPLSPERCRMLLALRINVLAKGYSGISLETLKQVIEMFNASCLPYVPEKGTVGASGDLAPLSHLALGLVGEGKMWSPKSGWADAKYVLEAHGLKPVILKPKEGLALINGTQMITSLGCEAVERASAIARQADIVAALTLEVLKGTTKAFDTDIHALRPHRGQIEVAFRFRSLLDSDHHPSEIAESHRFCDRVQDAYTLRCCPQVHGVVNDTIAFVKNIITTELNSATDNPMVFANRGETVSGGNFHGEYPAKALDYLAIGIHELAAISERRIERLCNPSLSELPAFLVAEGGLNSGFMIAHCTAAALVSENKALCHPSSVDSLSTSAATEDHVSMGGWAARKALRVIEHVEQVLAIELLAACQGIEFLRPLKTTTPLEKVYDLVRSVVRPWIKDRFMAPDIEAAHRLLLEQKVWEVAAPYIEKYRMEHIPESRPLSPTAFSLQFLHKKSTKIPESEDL
UniProt Q9UKN8: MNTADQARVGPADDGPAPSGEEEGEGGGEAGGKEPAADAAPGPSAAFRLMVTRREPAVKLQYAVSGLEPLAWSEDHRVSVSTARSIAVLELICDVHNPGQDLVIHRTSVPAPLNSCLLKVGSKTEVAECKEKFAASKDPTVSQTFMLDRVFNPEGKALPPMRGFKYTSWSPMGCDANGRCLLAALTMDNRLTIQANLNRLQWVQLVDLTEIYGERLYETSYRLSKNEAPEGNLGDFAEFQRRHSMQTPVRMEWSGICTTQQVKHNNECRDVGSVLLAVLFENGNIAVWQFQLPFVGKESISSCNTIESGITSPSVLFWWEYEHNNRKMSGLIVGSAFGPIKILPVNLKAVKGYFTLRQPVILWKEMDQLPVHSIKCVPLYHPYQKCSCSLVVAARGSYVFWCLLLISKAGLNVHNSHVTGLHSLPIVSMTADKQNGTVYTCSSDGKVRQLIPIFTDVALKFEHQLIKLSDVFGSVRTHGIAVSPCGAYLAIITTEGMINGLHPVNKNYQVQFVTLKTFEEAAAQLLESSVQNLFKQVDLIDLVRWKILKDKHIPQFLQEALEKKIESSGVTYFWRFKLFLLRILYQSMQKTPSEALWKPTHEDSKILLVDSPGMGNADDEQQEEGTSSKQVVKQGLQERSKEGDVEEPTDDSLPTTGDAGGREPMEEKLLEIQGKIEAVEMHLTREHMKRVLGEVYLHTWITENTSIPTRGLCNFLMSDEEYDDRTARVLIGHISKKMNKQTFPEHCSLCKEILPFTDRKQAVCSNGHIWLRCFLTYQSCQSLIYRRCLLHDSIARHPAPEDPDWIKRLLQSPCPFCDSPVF
UniProt P09211: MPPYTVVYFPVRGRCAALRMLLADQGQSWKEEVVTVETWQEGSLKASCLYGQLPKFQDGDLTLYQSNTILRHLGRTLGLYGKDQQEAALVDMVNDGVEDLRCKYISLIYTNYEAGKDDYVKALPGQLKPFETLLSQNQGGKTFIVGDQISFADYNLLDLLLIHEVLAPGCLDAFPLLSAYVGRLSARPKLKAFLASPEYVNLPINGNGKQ
UniProt Q00403, whole entry, looked up: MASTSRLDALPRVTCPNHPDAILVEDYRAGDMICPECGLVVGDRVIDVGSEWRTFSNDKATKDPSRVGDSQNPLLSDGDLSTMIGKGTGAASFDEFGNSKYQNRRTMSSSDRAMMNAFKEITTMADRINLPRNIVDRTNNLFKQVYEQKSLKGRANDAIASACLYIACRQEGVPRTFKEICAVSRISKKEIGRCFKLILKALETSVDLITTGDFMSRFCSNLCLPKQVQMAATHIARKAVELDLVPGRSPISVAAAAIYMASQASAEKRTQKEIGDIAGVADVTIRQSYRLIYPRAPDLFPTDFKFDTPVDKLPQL
UniProt P29084: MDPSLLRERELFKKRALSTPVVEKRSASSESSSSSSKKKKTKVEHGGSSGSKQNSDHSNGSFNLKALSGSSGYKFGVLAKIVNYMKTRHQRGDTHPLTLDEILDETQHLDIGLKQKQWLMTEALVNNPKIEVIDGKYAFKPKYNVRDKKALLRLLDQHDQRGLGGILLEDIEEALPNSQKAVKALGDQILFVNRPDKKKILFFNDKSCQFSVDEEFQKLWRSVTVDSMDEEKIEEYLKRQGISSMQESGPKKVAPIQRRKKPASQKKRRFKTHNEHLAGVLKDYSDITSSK
UniProt P69905, whole entry, looked up: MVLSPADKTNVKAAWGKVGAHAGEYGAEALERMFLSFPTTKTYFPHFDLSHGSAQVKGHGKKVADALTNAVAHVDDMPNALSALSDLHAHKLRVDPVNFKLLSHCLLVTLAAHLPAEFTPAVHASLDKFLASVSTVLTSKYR
UniProt P30711: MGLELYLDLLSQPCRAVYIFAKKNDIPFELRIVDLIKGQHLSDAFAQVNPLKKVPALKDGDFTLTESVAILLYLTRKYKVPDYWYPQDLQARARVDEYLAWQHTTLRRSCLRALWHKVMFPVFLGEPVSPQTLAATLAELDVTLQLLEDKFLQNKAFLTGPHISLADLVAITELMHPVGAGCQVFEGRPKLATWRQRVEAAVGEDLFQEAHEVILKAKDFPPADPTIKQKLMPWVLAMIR
UniProt P51610: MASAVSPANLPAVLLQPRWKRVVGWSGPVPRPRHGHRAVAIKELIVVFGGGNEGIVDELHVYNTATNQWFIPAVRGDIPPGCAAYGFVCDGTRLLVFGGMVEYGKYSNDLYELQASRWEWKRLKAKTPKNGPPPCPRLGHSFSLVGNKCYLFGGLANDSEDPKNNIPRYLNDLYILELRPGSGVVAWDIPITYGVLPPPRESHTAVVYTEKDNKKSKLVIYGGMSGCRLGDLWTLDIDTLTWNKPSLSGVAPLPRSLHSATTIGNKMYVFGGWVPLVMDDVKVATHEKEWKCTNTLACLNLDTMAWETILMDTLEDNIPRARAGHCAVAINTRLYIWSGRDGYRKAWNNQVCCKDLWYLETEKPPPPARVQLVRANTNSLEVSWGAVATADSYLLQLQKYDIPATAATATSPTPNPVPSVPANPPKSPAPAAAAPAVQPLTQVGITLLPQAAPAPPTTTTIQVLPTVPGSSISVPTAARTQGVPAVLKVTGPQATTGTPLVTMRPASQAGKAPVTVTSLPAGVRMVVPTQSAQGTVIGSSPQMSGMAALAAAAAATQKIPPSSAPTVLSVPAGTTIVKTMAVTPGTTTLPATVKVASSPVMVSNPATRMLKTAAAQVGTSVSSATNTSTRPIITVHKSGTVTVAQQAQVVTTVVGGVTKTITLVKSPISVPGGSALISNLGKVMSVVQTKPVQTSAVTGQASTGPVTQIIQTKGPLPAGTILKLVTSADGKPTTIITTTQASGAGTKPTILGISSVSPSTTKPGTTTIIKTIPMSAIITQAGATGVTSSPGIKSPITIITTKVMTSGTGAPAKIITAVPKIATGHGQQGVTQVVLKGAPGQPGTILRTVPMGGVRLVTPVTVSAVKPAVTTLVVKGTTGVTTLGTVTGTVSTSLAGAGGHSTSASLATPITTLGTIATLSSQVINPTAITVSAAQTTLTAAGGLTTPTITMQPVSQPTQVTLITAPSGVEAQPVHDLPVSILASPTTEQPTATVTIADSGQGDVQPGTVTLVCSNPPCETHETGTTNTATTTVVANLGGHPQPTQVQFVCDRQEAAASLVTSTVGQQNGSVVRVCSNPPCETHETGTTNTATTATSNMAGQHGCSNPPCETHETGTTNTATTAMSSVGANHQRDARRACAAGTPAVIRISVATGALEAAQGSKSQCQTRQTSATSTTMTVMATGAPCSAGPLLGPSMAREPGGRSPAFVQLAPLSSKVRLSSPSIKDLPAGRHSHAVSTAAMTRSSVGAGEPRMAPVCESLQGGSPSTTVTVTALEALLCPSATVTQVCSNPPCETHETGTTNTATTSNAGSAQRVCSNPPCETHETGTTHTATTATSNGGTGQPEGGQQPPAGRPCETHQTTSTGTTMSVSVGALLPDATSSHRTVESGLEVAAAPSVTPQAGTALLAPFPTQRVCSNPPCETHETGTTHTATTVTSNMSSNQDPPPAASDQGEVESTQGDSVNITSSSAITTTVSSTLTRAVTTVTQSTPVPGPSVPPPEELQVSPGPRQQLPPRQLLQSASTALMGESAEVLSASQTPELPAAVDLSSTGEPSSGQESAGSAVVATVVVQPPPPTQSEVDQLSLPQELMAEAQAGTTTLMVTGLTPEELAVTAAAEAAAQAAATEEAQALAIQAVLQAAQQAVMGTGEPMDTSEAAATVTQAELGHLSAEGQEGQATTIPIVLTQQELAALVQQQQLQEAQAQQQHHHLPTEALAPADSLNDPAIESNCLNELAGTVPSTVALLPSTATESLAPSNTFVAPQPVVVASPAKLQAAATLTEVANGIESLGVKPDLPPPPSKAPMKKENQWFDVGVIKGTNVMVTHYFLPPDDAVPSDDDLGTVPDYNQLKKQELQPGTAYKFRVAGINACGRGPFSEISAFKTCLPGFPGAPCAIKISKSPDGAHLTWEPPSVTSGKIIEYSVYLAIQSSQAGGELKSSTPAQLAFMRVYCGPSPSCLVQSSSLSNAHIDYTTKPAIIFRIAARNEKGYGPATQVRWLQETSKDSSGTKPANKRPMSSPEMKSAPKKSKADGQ

volasertib = compound: CC[C@@H]1C(=O)N(C)c2cnc(Nc3ccc(C(=O)N[C@H]4CC[C@H](N5CCN(CC6CC6)CC5)CC4)cc3OC)nc2N1C(C)C [volasertib]
Outline: as §1

[2] = compound: CC[C@H](C)N1C=C(C2=C(C=C(C=C21)C3=CN=C(C=C3)N4CCNCC4)C(=O)NCC5=C(C=C(NC5=O)C)C)C
Outline: as §1

epoxomicin = compound: CC[C@H](C)[C@@H](C(=O)N[C@@H]([C@@H](C)O)C(=O)N[C@@H](CC(C)C)C(=O)[C@]1(CO1)C)NC(=O)[C@H]([C@@H](C)CC)N(C)C(=O)C [epoxomicin]
Outline: as §1

[3] = compound: CCn1cc(-c2ccnc3[nH]c(-c4cccc(CN(C)C)c4)cc23)c(-c2ccc(NC(=O)N(C)C)cc2)n1
Outline: as §1

[4] = compound: CN(C)CC(=O)Nc1ccc2[nH]c(=O)c3ccccc3c2c1
Outline: as §1

[5] = compound: CN1C2=C(C3=C1C(=O)N(N=C3)CC4=CC(=CC=C4)N)SC(=C2)S(=O)C
Outline: as §1

[6] = compound: CN1CCC(CNc2ccc3ncc(-c4cccc(OC(F)(F)F)c4)n3n2)CC1
Outline: as §1

[7] = compound: CCn1c(C(=O)N(C2CC2)C2CC2)cc2c3c(ncn3C)c(Nc3cc(C)n(C)n3)nc21
Outline: as §1

rosiglitazone = compound: CN(CCOC1=CC=C(C=C1)C[C@H]2C(=O)NC(=O)S2)C3=CC=CC=N3 (racemic) [rosiglitazone]
Outline: as §1

Target | log2 fold change [1] | log2 fold change (volasertib) | log2 fold change [2] | log2 fold change (epoxomicin) | log2 fold change [3] | log2 fold change [4] | log2 fold change [5] | log2 fold change [6] | log2 fold change [7] | log2 fold change (rosiglitazone)
HDHD2 (UniProt Q9H0R4) | inactive: 0.011 | inactive: 0.049 | inactive: -0.007 | inactive: 0.073 | inactive: -0.063 | inactive: 0.053 | inactive: -0.058 | inactive: -0.096 |  | 
HDAC6 (UniProt Q9UBN7) | inactive: 0.013 | inactive: 0.005 | inactive: 0.014 | inactive: -0.069 | inactive: -0.157 | inactive: 0.068 | inactive: 0.058 | inactive: -0.04 |  | 
HAX1 (UniProt O00165) | inactive: -0.087 | active: -0.393 | inactive: -0.011 | inactive: -0.018 | inactive: 0.084 | inactive: 0.05 | inactive: 0.012 | active: -0.584 |  | 
GTF2H4 (UniProt Q92759) | inactive: -0.115 | inactive: -0.13 | inactive: -0.005 | inactive: -0.479 | inactive: 0.11 | inactive: -0.163 | inactive: 0.119 | inactive: -0.017 |  | 
HEATR5B (UniProt Q9P2D3) | inactive: -0.053 | inactive: -0.19 | inactive: 0.083 | inactive: -0.058 | inactive: 0.018 | inactive: -0.009 | inactive: -0.017 | inactive: -0.015 |  | 
GUF1 (UniProt Q8N442) | inactive: 0.031 | inactive: -0.164 | inactive: 0.002 |  | inactive: -0.02 | inactive: 0.035 | inactive: 0.25 | inactive: -0.025 | inactive: 0.088 | 
GSTO1 (UniProt P78417) | inactive: 0.005 | inactive: 0.08 | inactive: 0.009 | inactive: 0.013 | inactive: -0.052 | inactive: -0.007 | inactive: -0.082 | inactive: 0.084 |  | 
HBQ1 (UniProt P09105) | inactive: 0.01 | inactive: -0.014 | inactive: -0.005 | active: 0.375 | inactive: -0.064 | inactive: 0.047 | inactive: -0.145 | inactive: 0.063 |  | 
GTF3C5 isoform 3 (UniProt Q9Y5Q8) | inactive: -0.188 | inactive: -0.157 | inactive: 0.213 | inactive: -0.011 | inactive: -0.034 | inactive: 0.078 | inactive: -0.025 | inactive: 0.03 |  | 
GSK3B isoform 2 (UniProt P49841) | inactive: 0.013 | inactive: -0.027 | inactive: -0.002 | inactive: 0.058 | inactive: -0.1 | inactive: -0.001 | inactive: -0.004 | inactive: 0.004 |  | 
GTF3A (UniProt Q92664) | inactive: -0.128 | inactive: -0.028 | inactive: 0.074 | inactive: -0.101 | inactive: -0.263 | inactive: 0.049 | inactive: 0.016 | active: -0.447 |  | 
GUSB (UniProt P08236) | inactive: -0.104 | inactive: 0.067 | inactive: 0.354 | inactive: -0.053 | inactive: -0.026 | inactive: -0.001 | inactive: -0.028 | inactive: 0.001 |  | 
HADHB (UniProt P55084) | inactive: 0.082 | inactive: 0.462 | inactive: 0.123 | inactive: 0.05 | inactive: -0.223 | inactive: 0.015 | inactive: -0.058 | inactive: -0.223 |  | 
HAL (UniProt P42357) | inactive: 0.28 | inactive: -0.049 | inactive: 0.025 | inactive: 0.417 |  | inactive: 1.06 | inactive: 0.635 |  |  | 
HEXB (UniProt P07686) | active: -0.426 | active: -0.396 | inactive: -0.013 | inactive: -0.006 | inactive: 0.019 | inactive: 0 | inactive: -0.047 | active: -0.563 |  | 
GTF3C4 (UniProt Q9UKN8) | inactive: -0.002 | active: -0.263 | inactive: 0.001 | inactive: -0.001 | inactive: -0.003 | inactive: -0.024 | inactive: 0.007 | inactive: 0 |  | 

Two entries drawn at random from the list so far, as already listed:
Target | log2 fold change [1] | log2 fold change (volasertib) | log2 fold change [2] | log2 fold change (epoxomicin) | log2 fold change [3] | log2 fold change [4] | log2 fold change [5] | log2 fold change [6] | log2 fold change [7] | log2 fold change (rosiglitazone)
HADHB (UniProt P55084) | inactive: 0.082 | inactive: 0.462 | inactive: 0.123 | inactive: 0.05 | inactive: -0.223 | inactive: 0.015 | inactive: -0.058 | inactive: -0.223 |  | 
HEXB (UniProt P07686) | active: -0.426 | active: -0.396 | inactive: -0.013 | inactive: -0.006 | inactive: 0.019 | inactive: 0 | inactive: -0.047 | active: -0.563 |  | 

Continued:

Target | log2 fold change [1] | log2 fold change (volasertib) | log2 fold change [2] | log2 fold change (epoxomicin) | log2 fold change [3] | log2 fold change [4] | log2 fold change [5] | log2 fold change [6] | log2 fold change [7] | log2 fold change (rosiglitazone)
HDAC1 (UniProt Q13547) | inactive: -0.025 | inactive: -0.216 | inactive: 0.037 | inactive: -0.006 | inactive: 0.019 | inactive: 0.011 | inactive: 0.001 | inactive: -0.043 |  | 
GSKIP (UniProt Q9P0R6) | inactive: 0.112 | inactive: -0.023 | inactive: -0.1 |  | inactive: -0.078 | inactive: -0.06 | inactive: -0.076 | inactive: 0.162 | inactive: 0.005 | inactive: -0.048
GSTP1 (UniProt P09211) | active: 0.295 | active: 0.362 | inactive: 0.009 | inactive: -0.025 | inactive: 0.012 | inactive: -0.013 | inactive: -0.066 | inactive: -0.034 |  | 
GTF2B (UniProt Q00403) | inactive: -0.076 | active: -0.323 | inactive: 0.091 | inactive: 0.096 | inactive: -0.015 | inactive: 0.147 | inactive: -0.002 | inactive: -0.193 |  | 
HECTD1 (UniProt Q9ULT8) | inactive: 0.107 | inactive: -0.221 | inactive: 0.063 | inactive: 0.012 | inactive: 0 | inactive: 0.016 | inactive: 0.17 | inactive: -0.054 |  | 
HDAC7 isoform 5 (UniProt Q8WUI4) | inactive: 0.051 | inactive: 0.01 | inactive: 0.007 | inactive: 0.016 | inactive: -0.058 | inactive: 0.059 | inactive: -0.053 | inactive: -0.123 |  | 
GTF2E2 (UniProt P29084) | inactive: -0.11 | active: -0.265 | inactive: 0.105 | inactive: 0.099 | inactive: 0.001 | inactive: 0.069 | inactive: 0.027 | inactive: -0.103 |  | 
GSR (UniProt P00390) | inactive: 0.04 | inactive: 0.034 | inactive: -0.038 | inactive: 0.001 | inactive: -0.008 | inactive: -0.018 | inactive: -0.071 | inactive: -0.02 |  | 
HDGFL2 (UniProt Q7Z4V5) | inactive: -0.019 | inactive: 0.014 | inactive: -0.043 | inactive: 0.012 | inactive: 0.015 | inactive: -0.011 | inactive: 0.006 | inactive: -0.033 |  | 
HBA1 (UniProt P69905) | inactive: 0.049 | inactive: -0.059 | inactive: -0.038 | inactive: 0.316 | inactive: -0.076 | inactive: 0.012 | inactive: -0.044 | inactive: 0.153 |  | 
GTF2H3 (UniProt Q13889) | inactive: 0.004 | inactive: -0.122 | inactive: 0.066 | inactive: -0.099 | inactive: 0.115 | inactive: 0.052 | inactive: 0.027 | active: -0.34 |  | 
GSTT1 (UniProt P30711) | inactive: 0.02 | inactive: -0.057 | inactive: -0.038 | inactive: 0.203 | inactive: 0.019 | inactive: -0.034 | inactive: -0.058 | inactive: -0.002 |  | 
H2AFX (UniProt P16104) | inactive: 0.002 | inactive: 0.214 | inactive: -0.096 | inactive: -0.237 | inactive: 0.279 | inactive: -0.213 | inactive: 0.501 | inactive: 0.082 |  | 
HCFC1 (UniProt P51610) | inactive: 0.016 |  | inactive: -0.102 |  | inactive: 0.158 | inactive: -0.106 |  | inactive: 0.067 | inactive: 0.305 | 
GSTA1 (UniProt P08263) |  |  | inactive: -0.237 | inactive: -0.109 |  | inactive: -0.077 |  |  |  | inactive: 0.285

— the supplement of paper PMC10849652
